Test results published in PubChem BioAssay AID2685 (National Center for Advancing Translational Sciences (NCATS), 2010).
Some of the results follow. Shown are side measurements of this screen, not its main read-out; they come without a call. Most of these compounds were active or inconclusive in the main read-out, so they are no random draw. The note in brackets gives the kind of curve behind each potency; many fits are weak.

Assay: qHTS Assay for Lipid Storage Modulators in Drosophila S3 Cells;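 as to cell number change: cells counted by Cell Tracker Red CMTPX staining in the red channel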
Details: BODIPY lipid droplet fluorescence, 18-24 h; for cell number change: measured here: cell count max response, cells fed with added oleic acid
Method in brief: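 Drosophila S3 cells loaded with oleic acid (400 uM, as added) and compounds at several concentrations; lipid droplets imaged by 488-nm laser-scanning cytometry, 500–530 nm intensity and object ratio to cell channel. Percent activity normalized to 20 uM Triacsin C.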

[1] = measured here: cell number channel AC50, cells fed with added oleic acid
[2] = measured here: lipid fluorescence (Fed channel) AC50, cells fed with added oleic acid

Structure (SMILES) | cell number change | AC50 [1] | AC50 [2]
O=C(c1cc(O)c(O)c([N+](=O)[O-])c1)c1ccccc1F | -35.9% | 13 µM [falling, partial curve, poor fit] | 23.1 µM [falling, single point]
O=C(CCc1nc2cccnc2n1Cc1ccccc1)NCCc1ccc(Cl)cc1 | 1.91% |  | 14.6 µM [rising, single point]
COc1cc2nc(SCc3ccc(C(F)(F)F)cc3)n(Cc3cccs3)c(=N)c2cc1OC | -103% | 18.4 µM [falling, single point] | 29.1 µM [falling, single point]
CC(=O)Nc1ccc(Cl)cc1C(=O)O | -205% | 29.1 µM [falling, single point] | 29.1 µM [falling, single point]
COc1ccc(CC(=O)Nc2ccc3nc(C)sc3c2)cc1OC | 16.7% |  | 0.731 µM [rising, partial curve, poor fit]
Cc1cc(C)cc(NC(=O)CN2CCN(C(=O)C3CCCO3)CC2)c1 (stereo unspecified) | -5.32% |  | 5.62 µM [rising, single point]
O=C(Nc1cccc(F)c1)c1ccc(-c2ccccc2Cl)o1 | 27.4% |  | 
CCCS(=O)(=O)N1CCC(C(=O)NCCCN(C)Cc2ccccc2)CC1 | 9.39% |  | 18.4 µM [falling, partial curve]
O=C(c1ccco1)N1CCN(C(=O)c2cc(=O)[nH]c3ccccc23)CC1 | 3.5% |  | 13 µM [falling, partial curve, poor fit]
Cc1ccc(C)c2[nH]c(=O)c(CN(CC3CCCO3)C(=O)NC3CCCCC3)cc12 (stereo unspecified) | 23% |  | 
COc1ccc(OC)c(NC(=O)c2cnc3n(c2=O)CCS3)c1 | 8.22% | 0.146 µM [rising, full curve, poor fit] | 6.51 µM [rising, single point]
Cc1ccc(-c2nc(SCC(=O)Nc3cc(C)on3)c3c(=O)n(C)c(=O)n(C)c3n2)cc1 | 8.63% |  | 1.46 µM [falling, full curve]
Cc1nc(-c2ccccc2)sc1C(=O)Nc1ccccc1F | 32.4% | 29.1 µM [rising, single point] | 
CCOC(=O)C1=CCN(Cc2ccccc2)CC1 | 11% |  | 
CC(NC(=O)c1ccco1)C1COc2ccccc2O1 (stereo unspecified) | 3.48% | 1.46 µM [falling, full curve] | 1.3 µM [falling, full curve]
COC(=O)c1c(C)oc2ccc(OC(=O)c3cccs3)cc12 | -19.3% |  | 
CC1Cc2ccccc2N1Cc1nc2scc(-c3cccs3)c2c(=O)[nH]1 (stereo unspecified) | -13.2% |  | 20.6 µM [rising, single point]
Cc1ccc2nc(N3CCN(C(=O)CCCC(=O)O)CC3)nc(-c3ccccc3)c2c1 | 27% |  | 29.1 µM [falling, single point]
CN(CC(=O)Nc1ccc(F)cc1)C(=O)COC(=O)CN1C(=O)NC2(CCCC2)C1=O | -1.47% |  | 
Cc1cc(SCC(=O)NCCN2C(=O)CSC2=O)nc2c(C)cccc12 | 45.6% | 16.4 µM [rising, single point] | 

Full records, looked up by structure:
CC1Cc2ccccc2N1Cc1nc2scc(-c3cccs3)c2c(=O)[nH]1 (stereo unspecified) as listed: cell number change: -13.2%; AC50 [2]: 20.6 µM [rising, single point]
Cc1ccc(-c2nc(SCC(=O)Nc3cc(C)on3)c3c(=O)n(C)c(=O)n(C)c3n2)cc1 as listed: cell number change: 8.63%; AC50 [2]: 1.46 µM [falling, full curve]
O=C(c1cc(O)c(O)c([N+](=O)[O-])c1)c1ccccc1F as listed: cell number change: -35.9%; AC50 [1]: 13 µM [falling, partial curve, poor fit]; AC50 [2]: 23.1 µM [falling, single point]

Next part.

Structure (SMILES) | cell number change | AC50 [1] | AC50 [2]
COc1cc(/C=C2/C(=N)N3C=CSC3=NC2=O)ccc1OCCCOc1ccccc1C | -27.5% |  | 29.1 µM [falling, single point]
c1ccc(CNc2ncnc3sc4c(c23)CCC4)nc1 | -18.7% |  | 
COc1cc(/C=C2/C(=N)N3OC(C)=CC3=NC2=O)ccc1OC(=O)c1ccco1 | 10.6% |  | 
CCn1ncc(CNC(=O)CCCSc2nc(-c3ccco3)cc(C(F)(F)F)n2)c1C | -19.1% |  | 29.1 µM [falling, single point]
CC1CCCN(CCCNC(=O)c2nn(C)c3c2CSc2ccccc2-3)C1 (stereo unspecified) | 9.48% |  | 3.66 µM [falling, single point]
CCn1cc(S(=O)(=O)c2ccc(C)cc2)c(=O)c2cc(F)c(N3CCN(C)CC3)cc21 | 20.2% |  | 6.51 µM [falling, single point]
CCn1c(SCC(=O)OC)nc2sc3c(c2c1=O)CCC3 | -16.1% |  | 
CCC(CC)C(=O)Nc1cccc(/C(C)=N/NC(=O)c2c(Br)cnn2C)c1 | -9.07% |  | 
Cc1cc(=O)n2[nH]c(NCc3ccccc3F)nc2n1 | -11.3% |  | 29.1 µM [falling, single point]
O=C(Nc1ccccc1)Nc1ccc(S(=O)(=O)N2CCCCC2)cc1 | -89.1% |  | 
CCc1nc(NC(C)(C)C)c2cnn(-c3ccccc3)c2n1 | -32.4% | 0.651 µM [falling, full curve] | 0.58 µM [falling, single point]
CCc1cccc(CC)c1NC(=S)N1CCn2cccc2C1c1ccncc1 (stereo unspecified) | -0.221% | 4.11 µM [rising, single point] | 
COc1ccc(-c2noc(C3CCCN(C(=O)c4cccc(C)c4)C3)n2)cc1 (stereo unspecified) | -15.7% |  | 
COc1ccc(NC(=O)CN(C)C(=O)/C=C/c2cn(Cc3ccccc3)nc2-c2cccnc2)cc1 | 30.3% | 14.6 µM [rising, partial curve, poor fit] | 9.2 µM [rising, partial curve, poor fit]
COC(=O)c1ccc(COC(=O)c2ccc(N(C)C)cc2)cc1 | -28.4% |  | 14.6 µM [rising, single point]
CCCCn1c(N)c(N(CC(C)C)C(=O)CN(C)S(=O)(=O)c2ccc(F)cc2)c(=O)[nH]c1=O | 27% |  | 
CCOc1ccccc1Nc1nc(N)nc(CN(C)C2CCCCC2)n1 | -10.6% |  | 0.116 µM [falling, single point]
CN(/N=C/c1ccc(O)cc1O)c1ncc(C(F)(F)F)cc1Cl | -49.4% | 18.4 µM [falling, single point] | 16.4 µM [falling, partial curve]
O=C(Nc1ccc(F)cc1)c1ccc(CSc2ccc(Cl)cc2)o1 | -2.51% |  | 29.1 µM [rising, single point]
O=C(O)c1ccccc1/C=N/Nc1nc(N2CCCCC2)nc(N2CCCCC2)n1 | -15.6% |  | 29.1 µM [falling, single point]
